Assay results published in the supplement of paper PMC10849652.
The other results are listed elsewhere or left out.

Sequences of proteins named here, by UniProt entry; tags and fusion partners are left off. A change or cut given only in a name is not applied to a line headed by its entry.
UniProt P05114: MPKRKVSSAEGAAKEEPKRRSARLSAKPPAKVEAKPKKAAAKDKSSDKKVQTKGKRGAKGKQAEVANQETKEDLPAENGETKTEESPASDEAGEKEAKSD
UniProt P49773: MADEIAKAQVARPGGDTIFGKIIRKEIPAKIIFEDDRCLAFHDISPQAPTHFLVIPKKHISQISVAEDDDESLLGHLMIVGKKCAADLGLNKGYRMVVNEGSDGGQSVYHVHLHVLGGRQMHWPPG
UniProt Q86YM7: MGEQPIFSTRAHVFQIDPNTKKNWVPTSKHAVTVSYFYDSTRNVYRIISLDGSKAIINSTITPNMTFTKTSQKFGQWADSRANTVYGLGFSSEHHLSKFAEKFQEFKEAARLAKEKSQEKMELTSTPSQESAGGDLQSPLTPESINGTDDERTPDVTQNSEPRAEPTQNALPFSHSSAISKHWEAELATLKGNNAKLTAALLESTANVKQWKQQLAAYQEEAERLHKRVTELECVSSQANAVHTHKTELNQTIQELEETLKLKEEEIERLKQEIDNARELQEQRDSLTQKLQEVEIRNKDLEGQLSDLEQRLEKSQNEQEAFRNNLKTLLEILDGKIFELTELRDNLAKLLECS
UniProt Q9UGU5: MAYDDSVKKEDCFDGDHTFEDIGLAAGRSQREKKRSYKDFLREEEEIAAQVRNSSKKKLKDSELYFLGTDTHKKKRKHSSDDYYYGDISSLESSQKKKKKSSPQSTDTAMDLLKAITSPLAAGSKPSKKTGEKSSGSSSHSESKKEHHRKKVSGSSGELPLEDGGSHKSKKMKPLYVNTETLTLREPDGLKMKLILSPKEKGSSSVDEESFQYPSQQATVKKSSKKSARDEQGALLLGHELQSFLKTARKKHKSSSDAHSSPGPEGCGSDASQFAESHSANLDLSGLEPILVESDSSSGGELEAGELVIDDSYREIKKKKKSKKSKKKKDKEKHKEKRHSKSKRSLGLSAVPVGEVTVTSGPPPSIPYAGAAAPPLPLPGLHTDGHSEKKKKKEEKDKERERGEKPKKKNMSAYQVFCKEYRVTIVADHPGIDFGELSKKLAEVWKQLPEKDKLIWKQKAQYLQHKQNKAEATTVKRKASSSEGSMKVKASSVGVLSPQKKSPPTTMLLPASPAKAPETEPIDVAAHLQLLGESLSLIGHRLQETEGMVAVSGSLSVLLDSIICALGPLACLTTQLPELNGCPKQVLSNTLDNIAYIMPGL
UniProt P17066, whole entry, looked up: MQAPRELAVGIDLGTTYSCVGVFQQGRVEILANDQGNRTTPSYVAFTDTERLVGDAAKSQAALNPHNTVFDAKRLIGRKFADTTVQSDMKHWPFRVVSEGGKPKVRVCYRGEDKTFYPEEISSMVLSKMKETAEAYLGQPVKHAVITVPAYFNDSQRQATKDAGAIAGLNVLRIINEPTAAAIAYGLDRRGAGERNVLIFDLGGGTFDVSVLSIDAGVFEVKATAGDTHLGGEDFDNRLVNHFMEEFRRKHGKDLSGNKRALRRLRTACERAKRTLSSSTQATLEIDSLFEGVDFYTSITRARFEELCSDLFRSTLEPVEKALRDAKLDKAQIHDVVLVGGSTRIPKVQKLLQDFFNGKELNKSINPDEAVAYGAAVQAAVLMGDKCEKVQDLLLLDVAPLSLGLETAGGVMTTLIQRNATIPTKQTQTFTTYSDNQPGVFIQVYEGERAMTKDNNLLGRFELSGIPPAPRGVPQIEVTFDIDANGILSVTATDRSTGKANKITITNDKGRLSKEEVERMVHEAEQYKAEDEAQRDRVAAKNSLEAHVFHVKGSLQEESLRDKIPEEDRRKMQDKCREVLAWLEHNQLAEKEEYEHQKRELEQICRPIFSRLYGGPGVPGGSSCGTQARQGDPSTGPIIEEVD
UniProt P55795: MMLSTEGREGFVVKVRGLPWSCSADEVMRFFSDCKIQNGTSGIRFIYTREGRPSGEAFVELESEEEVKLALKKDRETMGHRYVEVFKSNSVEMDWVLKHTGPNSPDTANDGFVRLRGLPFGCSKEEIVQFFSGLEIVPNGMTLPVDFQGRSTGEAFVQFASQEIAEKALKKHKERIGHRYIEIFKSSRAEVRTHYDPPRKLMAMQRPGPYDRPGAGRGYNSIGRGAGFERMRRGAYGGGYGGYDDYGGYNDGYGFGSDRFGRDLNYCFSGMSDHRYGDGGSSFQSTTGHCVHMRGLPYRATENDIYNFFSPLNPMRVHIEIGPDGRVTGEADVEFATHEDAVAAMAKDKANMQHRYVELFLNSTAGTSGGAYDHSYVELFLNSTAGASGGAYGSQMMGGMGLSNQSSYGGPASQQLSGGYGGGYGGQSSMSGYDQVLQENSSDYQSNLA
UniProt P34931, whole entry, looked up: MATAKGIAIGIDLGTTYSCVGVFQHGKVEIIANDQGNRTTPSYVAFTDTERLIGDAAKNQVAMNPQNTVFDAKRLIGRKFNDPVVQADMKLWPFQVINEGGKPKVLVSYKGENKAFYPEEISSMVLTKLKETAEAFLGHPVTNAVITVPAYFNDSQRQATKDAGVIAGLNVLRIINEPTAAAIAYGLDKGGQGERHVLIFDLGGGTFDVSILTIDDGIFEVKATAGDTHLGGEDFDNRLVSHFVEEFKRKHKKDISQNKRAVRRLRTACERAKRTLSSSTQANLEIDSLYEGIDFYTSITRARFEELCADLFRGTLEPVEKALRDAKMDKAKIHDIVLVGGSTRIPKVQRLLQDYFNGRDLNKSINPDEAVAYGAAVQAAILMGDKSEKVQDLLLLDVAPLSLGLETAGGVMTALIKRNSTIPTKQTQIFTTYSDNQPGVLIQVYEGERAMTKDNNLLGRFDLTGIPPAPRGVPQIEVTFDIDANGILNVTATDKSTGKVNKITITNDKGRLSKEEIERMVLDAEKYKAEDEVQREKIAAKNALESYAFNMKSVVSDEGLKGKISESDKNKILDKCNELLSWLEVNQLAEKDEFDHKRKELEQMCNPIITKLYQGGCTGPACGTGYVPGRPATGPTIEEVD
UniProt Q9ULT8: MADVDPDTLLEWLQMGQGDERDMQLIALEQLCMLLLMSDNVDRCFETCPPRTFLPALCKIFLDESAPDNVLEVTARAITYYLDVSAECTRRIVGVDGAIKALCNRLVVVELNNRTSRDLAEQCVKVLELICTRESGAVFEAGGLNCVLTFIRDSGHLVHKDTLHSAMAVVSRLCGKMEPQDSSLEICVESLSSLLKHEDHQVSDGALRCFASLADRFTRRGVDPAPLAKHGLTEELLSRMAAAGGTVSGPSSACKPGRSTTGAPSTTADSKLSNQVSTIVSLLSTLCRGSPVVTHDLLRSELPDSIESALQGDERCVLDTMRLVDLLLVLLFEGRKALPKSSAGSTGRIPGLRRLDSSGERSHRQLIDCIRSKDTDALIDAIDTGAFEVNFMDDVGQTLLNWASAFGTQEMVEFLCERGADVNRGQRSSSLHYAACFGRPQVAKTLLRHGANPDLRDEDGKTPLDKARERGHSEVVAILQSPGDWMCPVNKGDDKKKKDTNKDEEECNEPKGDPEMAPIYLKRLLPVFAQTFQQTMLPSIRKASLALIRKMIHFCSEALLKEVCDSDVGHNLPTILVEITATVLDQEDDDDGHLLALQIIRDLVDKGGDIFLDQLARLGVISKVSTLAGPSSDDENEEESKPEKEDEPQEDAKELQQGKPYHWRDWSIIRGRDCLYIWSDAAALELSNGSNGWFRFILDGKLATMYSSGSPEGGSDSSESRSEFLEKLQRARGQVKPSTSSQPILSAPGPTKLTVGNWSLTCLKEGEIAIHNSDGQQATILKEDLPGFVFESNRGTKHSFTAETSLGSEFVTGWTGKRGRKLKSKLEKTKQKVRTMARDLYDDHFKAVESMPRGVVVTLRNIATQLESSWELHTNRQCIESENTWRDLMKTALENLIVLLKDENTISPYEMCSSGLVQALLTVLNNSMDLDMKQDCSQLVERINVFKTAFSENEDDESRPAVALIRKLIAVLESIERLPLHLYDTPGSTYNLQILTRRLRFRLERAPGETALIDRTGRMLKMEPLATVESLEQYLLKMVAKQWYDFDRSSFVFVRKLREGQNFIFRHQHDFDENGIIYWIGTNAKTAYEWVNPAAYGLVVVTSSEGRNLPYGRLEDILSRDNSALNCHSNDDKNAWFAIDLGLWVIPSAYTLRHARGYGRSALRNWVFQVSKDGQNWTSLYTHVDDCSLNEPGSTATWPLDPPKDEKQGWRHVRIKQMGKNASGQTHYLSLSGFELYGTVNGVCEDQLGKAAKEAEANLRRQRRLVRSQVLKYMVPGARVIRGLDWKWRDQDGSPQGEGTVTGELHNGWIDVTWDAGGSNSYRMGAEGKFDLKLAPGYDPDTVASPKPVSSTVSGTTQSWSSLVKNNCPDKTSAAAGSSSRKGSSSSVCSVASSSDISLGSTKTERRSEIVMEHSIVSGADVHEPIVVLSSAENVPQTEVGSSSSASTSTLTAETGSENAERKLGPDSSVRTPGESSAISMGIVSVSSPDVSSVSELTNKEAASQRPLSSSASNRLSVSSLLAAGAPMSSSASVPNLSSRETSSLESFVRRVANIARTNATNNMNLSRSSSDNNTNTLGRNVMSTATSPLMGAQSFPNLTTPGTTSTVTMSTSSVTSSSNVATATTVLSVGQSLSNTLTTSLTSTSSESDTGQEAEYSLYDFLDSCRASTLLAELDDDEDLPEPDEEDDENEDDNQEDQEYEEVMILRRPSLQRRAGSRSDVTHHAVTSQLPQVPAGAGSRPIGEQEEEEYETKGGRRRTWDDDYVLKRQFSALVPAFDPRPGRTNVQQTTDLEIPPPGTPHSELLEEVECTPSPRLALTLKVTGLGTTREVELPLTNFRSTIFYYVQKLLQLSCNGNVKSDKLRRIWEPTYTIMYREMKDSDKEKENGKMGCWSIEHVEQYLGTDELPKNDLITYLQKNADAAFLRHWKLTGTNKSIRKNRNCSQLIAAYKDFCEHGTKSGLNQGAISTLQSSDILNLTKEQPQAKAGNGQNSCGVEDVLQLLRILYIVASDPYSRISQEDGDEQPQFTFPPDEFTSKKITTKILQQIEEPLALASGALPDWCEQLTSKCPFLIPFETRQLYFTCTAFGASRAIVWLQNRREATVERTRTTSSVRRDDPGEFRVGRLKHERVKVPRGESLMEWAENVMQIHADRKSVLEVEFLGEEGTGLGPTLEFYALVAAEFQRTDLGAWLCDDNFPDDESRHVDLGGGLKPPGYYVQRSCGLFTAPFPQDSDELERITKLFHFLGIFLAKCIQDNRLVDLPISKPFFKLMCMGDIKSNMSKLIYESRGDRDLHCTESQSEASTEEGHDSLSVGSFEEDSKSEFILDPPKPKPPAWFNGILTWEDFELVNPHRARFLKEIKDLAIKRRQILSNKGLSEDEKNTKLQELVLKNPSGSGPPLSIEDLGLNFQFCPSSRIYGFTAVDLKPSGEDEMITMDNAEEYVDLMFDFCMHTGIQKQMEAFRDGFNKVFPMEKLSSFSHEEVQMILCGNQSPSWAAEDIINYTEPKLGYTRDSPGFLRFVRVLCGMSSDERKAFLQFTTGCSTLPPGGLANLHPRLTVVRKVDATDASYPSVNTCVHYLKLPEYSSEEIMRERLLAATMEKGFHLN
UniProt Q99729: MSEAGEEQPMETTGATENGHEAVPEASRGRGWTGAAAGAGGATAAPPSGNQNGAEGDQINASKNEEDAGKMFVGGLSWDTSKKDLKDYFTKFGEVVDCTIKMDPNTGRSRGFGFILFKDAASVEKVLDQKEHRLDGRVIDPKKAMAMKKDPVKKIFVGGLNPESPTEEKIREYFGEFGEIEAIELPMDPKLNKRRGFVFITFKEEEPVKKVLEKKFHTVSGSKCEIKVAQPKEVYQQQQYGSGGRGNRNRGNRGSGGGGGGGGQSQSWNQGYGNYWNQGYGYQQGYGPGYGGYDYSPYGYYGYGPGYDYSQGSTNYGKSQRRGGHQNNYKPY
UniProt P52272: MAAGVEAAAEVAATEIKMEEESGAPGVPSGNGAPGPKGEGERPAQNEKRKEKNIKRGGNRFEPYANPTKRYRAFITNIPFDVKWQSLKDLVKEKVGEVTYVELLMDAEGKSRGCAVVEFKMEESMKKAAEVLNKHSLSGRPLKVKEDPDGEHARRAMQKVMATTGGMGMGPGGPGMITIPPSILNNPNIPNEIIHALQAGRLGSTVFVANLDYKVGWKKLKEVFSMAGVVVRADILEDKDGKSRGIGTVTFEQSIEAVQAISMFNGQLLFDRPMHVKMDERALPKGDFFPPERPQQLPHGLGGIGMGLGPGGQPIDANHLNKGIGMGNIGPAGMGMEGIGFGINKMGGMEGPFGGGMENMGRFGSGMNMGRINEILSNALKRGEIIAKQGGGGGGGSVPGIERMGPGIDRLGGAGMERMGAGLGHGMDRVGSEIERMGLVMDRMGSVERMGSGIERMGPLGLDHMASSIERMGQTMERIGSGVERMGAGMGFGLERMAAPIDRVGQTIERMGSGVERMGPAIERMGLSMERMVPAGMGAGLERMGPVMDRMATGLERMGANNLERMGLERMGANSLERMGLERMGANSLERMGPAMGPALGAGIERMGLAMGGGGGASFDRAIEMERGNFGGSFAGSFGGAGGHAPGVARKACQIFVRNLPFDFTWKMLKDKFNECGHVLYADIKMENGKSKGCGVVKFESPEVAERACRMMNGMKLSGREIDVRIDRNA

Legend:
Assay in all cases: log2 fold change, soluble protein after heating vs DMSO (PISA); higher = thermal stabilisation; K562 lysate, 10 uM; active = over 0.2 and 3.5 SD of the protein, either way, in both replicates (recomputed)
[1] = compound: NCC(=O)Nc1ccc(-n2nc(C(F)(F)F)cc2-c2ccc3c(ccc4ccccc43)c2)cc1
Outline: (§1)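 A 30 min treatment with 10 μM compound was applied to crude K562 extract at 1 mg/mL protein in PBS pH 7.4 with 1 mM MgCl2. Heating for 3 min spanned 48°C-58°C, after which aliquots were pooled, adjusted to 0.5% NP-40 at 4°C and spun at 21,000xg for 90 min. TMTpro 16plex LC-MS/MS of the supernatant, with channel sums equalised, gave values recorded as log-two fold change in thermal stability against solvent controls, from duplicates.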

[2] = compound: O=C(CCCCCCC(=O)Nc1ccccc1)NO [vorinostat]
Outline: as §1

[3] = compound: O=C(O)c1ccc2c(c1)nc(Nc1cccc(Cl)c1)c1ccncc12 [silmitasertib]
Outline: as §1

[4] = compound: O=C1NC(=O)C(c2cnc3ccccn23)=C1c1cn2c3c(cc(F)cc13)CN(C(=O)N1CCCCC1)CC2
Outline: as §1

[5] = compound: c1cn2cc(-c3ccc4cn[nH]c4c3)nc(Nc3ccc(N4CCOCC4)cc3)c2n1 [entospletinib]
Outline: as §1

Target | log2 fold change [1] | log2 fold change [2] | log2 fold change [3] | log2 fold change [4] | log2 fold change [5]
HMGN1 (UniProt P05114) | inactive: -0.013 | inactive: 0.134 | inactive: -0.019 | inactive: -0.023 | inactive: 0.008
HNRNPA2B1 (UniProt P22626) | inactive: 0.003 | inactive: 0.053 | inactive: -0.009 | inactive: -0.001 | inactive: 0.012
HINT1 (UniProt P49773) | inactive: -0.115 | inactive: 0.077 | inactive: 0.019 | inactive: -0.041 | inactive: -0.089
HOMER1 (UniProt Q86YM7) | inactive: -0.005 | inactive: 0.038 | inactive: -0.024 | inactive: -0.057 | inactive: -0.045
HMGXB4 (UniProt Q9UGU5) | inactive: -0.04 | inactive: 0.317 | inactive: -0.208 |  | inactive: -0.18
HSPA6 (UniProt P17066) | inactive: 0.01 | inactive: 0.083 | inactive: 0.005 | inactive: 0.016 | inactive: 0.007
HNRNPH2 (UniProt P55795) | inactive: -0.008 | active: -0.243 | inactive: 0.005 | inactive: -0.054 | inactive: 0.002
HSPA1L (UniProt P34931) | inactive: -0.093 | inactive: 0.055 | inactive: 0.05 | inactive: -0.016 | inactive: -0.032
HECTD1 (UniProt Q9ULT8) | inactive: 0.019 | inactive: -0.195 | inactive: 0.049 | inactive: -0.042 | inactive: -0.051
HNRNPAB isoform 3 (UniProt Q99729) | inactive: 0.067 | inactive: 0.189 | inactive: -0.01 | inactive: 0.008 | inactive: -0.019
HNRNPM (UniProt P52272) | inactive: -0.008 | active: -0.235 | inactive: 0.022 | inactive: -0.05 | inactive: 0.015

2 entries from above, with tabs.
Target	log2 fold change [1]	log2 fold change [2]	log2 fold change [3]	log2 fold change [4]	log2 fold change [5]
HOMER1 (UniProt Q86YM7)	inactive: -0.005	inactive: 0.038	inactive: -0.024	inactive: -0.057	inactive: -0.045
HMGXB4 (UniProt Q9UGU5)	inactive: -0.04	inactive: 0.317	inactive: -0.208		inactive: -0.18
